The list does not hold the whole screen: its compounds were picked by chemical class. Other doses and runs of a compound may be missing. T/C gives the treated animals as a percentage of the vehicle group. For survival time, this PubChem deposit counts one and a half times the control or more as active, and values a quarter to a half above the control carry no call in these data; other NCI protocols may use other cut-offs. Some entries show no survivor count and are marked so; the dose need not have been tolerated. Schedule codes are those of the source, taken here to give the interval after Q, in days (D) or hours (H), and the number of doses after X.
System: CD2F1 mice, ip Colon 26 adenocarcinoma, median survival T/C
Assay: NCI In Vivo Anticancer Drug Screen. Data for tumor model Colon 26 Adenocarcinoma (intraperitoneal) in CD2F1 (CDF1) mice
Settings: T/C endpoint: median survival time, schedule: Q04DX003 (ip), vehicle: saline, higher T/C = longer survival
Experimental: The antitumor activity of compounds was measured in mice bearing transplantable tumors. Survival or tumor size were measured and the results are expressed as the measurement made in the treated group (T) divided by the measurement made in the vehicle treated control group (C). The tumor model used in this assay is Colon 26 Adenocarcinoma (intraperitoneal) in CD2F1 (CDF1) mice

In the case of `CN(CCCl)CCCl`, the T/C (dose: 0.06 mg/kg/injection) was 165 % of control [survivor count not shown], the T/C (dose: 0.12 mg/kg/injection) was 231 % of control [survivor count not shown] and the T/C (dose: 0.25 mg/kg/injection) was 211 % of control [survivor count not shown]. The T/C (dose: 0.5 mg/kg/injection) was 291 % of control [survivor count not shown] and the T/C (dose: 1.0 mg/kg/injection) was 109 % of control [survivor count not shown].

— PubChem BioAssay AID210 (DTP/NCI, 2004)
